Assay results taken from PMC10954470.
These are yes or no findings as the source states them, for the method shown. In cells and extracts the contact can be indirect. Some results given as binding are weak or reduced against the parent protein; the word gives no strength. Where a sequence is shown, tags or fusion partners need not be part of it.

Amino acid sequences for entries named in this document (tags omitted).
UniProt P38110: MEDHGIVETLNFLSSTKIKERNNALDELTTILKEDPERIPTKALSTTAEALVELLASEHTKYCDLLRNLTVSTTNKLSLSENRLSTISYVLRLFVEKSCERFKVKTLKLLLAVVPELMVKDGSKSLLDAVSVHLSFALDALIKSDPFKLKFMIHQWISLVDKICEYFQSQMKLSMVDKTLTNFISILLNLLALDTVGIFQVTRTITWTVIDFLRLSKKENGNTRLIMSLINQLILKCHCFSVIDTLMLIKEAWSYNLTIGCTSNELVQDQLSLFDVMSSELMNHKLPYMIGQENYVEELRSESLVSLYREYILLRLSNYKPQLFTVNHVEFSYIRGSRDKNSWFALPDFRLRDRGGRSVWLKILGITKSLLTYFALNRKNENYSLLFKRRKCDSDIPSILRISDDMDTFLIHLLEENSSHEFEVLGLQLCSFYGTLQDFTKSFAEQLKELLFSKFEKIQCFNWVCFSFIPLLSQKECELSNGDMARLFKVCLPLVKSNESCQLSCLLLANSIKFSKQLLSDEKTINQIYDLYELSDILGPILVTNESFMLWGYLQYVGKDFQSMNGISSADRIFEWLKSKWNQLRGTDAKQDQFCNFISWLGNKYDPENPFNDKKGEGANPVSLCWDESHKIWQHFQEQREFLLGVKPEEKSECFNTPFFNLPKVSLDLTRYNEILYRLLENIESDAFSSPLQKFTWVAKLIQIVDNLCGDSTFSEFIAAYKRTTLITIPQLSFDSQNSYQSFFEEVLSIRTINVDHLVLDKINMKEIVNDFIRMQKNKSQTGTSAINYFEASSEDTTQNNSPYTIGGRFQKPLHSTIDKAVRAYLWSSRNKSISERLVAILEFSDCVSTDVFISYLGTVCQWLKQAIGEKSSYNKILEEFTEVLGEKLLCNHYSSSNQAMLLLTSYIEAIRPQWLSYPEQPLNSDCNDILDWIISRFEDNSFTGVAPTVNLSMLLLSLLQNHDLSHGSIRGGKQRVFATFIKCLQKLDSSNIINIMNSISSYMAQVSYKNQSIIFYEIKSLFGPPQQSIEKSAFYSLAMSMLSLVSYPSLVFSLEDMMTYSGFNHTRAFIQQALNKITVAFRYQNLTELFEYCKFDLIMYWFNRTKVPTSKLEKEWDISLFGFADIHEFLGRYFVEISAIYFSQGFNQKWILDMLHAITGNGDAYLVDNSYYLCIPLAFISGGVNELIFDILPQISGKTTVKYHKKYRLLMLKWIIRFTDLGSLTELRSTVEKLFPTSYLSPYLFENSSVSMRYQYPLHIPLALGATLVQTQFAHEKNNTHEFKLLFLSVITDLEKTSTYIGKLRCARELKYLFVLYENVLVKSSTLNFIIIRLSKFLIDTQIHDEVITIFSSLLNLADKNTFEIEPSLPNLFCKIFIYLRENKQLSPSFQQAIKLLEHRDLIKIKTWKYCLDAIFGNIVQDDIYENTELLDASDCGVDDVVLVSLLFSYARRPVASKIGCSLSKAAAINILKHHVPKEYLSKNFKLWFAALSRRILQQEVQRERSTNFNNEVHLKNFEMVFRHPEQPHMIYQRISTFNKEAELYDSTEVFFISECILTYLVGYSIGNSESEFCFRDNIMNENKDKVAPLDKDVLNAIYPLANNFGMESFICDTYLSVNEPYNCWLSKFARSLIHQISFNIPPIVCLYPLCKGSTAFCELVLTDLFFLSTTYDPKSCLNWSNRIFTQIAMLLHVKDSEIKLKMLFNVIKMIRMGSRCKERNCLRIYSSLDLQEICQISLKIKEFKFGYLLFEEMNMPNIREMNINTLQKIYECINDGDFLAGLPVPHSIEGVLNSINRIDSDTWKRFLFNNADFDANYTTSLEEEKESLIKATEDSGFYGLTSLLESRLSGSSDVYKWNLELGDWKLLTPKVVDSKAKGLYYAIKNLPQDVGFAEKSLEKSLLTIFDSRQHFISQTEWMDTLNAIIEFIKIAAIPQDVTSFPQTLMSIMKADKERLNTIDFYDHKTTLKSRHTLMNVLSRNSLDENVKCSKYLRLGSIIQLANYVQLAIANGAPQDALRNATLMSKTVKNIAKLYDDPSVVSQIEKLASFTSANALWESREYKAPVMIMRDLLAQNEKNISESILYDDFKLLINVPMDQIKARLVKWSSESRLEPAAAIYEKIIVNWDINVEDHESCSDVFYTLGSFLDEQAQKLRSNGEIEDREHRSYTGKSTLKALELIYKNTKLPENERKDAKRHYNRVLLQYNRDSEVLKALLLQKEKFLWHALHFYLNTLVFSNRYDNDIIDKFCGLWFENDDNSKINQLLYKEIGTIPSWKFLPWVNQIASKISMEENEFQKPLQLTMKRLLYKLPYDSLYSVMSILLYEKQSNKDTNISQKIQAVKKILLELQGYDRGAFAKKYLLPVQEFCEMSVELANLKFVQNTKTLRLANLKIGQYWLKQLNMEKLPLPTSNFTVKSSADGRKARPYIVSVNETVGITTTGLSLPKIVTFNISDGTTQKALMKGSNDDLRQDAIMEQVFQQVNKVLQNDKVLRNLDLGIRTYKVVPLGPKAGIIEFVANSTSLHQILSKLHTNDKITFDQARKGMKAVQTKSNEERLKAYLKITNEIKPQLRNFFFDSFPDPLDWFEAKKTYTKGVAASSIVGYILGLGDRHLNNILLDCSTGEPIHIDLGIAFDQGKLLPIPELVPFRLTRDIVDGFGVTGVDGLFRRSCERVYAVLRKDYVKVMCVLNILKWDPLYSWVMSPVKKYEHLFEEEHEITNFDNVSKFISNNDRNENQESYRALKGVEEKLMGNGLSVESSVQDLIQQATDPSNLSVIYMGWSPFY

B1: Rif2-Myc (wild-type Rif2, epitope-tagged at its native genomic locus) (protein, UniProt Q06208 1-395)
chain: MEHVDSDFAPIRRSKKVVDSDKIVKAISDDLEQKNFTVLRKLNLVPIKKSVSSPKVCKPSPVKERVDHVFYQKFKSMALQELGTNYLSISYVPSLSKFLSKNLRSMKNCIVFFDKVEHIHQYAGIDRAVSETLSLVDINVVIIEMNDYLMKEGIQSSKSKECIESMGQASYSGQLDFEASEKPSNHTSDLMMMVMRKINNDESIDHIVYFKFEQLDKLSTSTIIEPSKLTEFINVLSVLEKSNNIAFKVLIYSNNVSISSLLSTSLKKKLNTKYTVFEMPILTCAQEQEYLKKMIKFTFDSGSKLLQSYNSLVTCQLNNKESNLAIFFEFLKVFPHPFTYLFNAYTEIIVQSRTFDELLDKIRNRLTIKNYPHSAYNFKKNQRLPLKLTRKVHDR
B2: Rad50-Myc (Myc-tagged Rad50) (protein, UniProt P12753 1-1312)
chain: MSAIYKLSIQGIRSFDSNDRETIEFGKPLTLIVGMNGSGKTTIIECLKYATTGDLPPNSKGGVFIHDPKITGEKDIRAQVKLAFTSANGLNMIVTRNIQLLMKKTTTTFKTLEGQLVAINNSGDRSTLSTRSLELDAQVPLYLGVPKAILEYVIFCHQEDSLWPLSEPSNLKKKFDEIFQAMKFTKALDNLKSIKKDMSVDIKLLKQSVEHLKLDKDRSKAMKLNIHQLQTKIDQYNEEVSEIESQLNEITEKSDKLFKSNQDFQKILSKVENLKNTKLSISDQVKRLSNSIDILDLSKPDLQNLLANFSKVLMDKNNQLRDLETDISSLKDRQSSLQSLSNSLIRRQGELEAGKETYEKNRNHLSSLKEAFQHKFQGLSNIENSDMAQVNHEMSQFKAFISQDLTDTIDQFAKDIQLKETNLSDLIKSITVDSQNLEYNKKDRSKLIHDSEELAEKLKSFKSLSTQDSLNHELENLKTYKEKLQSWESENIIPKLNQKIEEKNNEMIILENQIEKFQDRIMKTNQQADLYAKLGLIKKSINTKLDELQKITEKLQNDSRIRQVFPLTQEFQRADLEMDFQKLFINMQKNIAINNKKMHELDRRYTNALYNLNTIEKDLQDNQKSKEKVIQLLSENLPEDCTIDEYNDVLEETELSYKTALENLKMHQTTLEFNRKALEIAERDSCCYLCSRKFENESFKSKLLQELKTKTDANFEKTLKDTVQNEKEYLHSLRLLEKHIITLNSINEKIDNSQKCLEKAKEETKTSKSKLDELEVDSTKLKDEKELAESEIRPLIEKFTYLEKELKDLENSSKTISEELSIYNTSEDGIQTVDELRDQQRKMNDSLRELRKTISDLQMEKDEKVRENSRMINLIKEKELTVSEIESSLTQKQNIDDSIRSKRENINDIDSRVKELEARIISLKNKKDEAQSVLDKVKNERDIQVRNKQKTVADINRLIDRFQTIYNEVVDFEAKGFDELQTTIKELELNKAQMLELKEQLDLKSNEVNEEKRKLADSNNEEKNLKQNLELIELKSQLQHIESEISRLDVQNAEAERDKYQEESLRLRTRFEKLSSENAGKLGEMKQLQNQIDSLTHQLRTDYKDIEKNYHKEWVELQTRSFVTDDIDVYSKALDSAIMKYHGLKMQDINRIIDELWKRTYSGTDIDTIKIRSDEVSSTVKGKSYNYRVVMYKQDVELDMRGRCSAGQKVLASIIIRLALSETFGANCGVIALDEPTTNLDEENIESLAKSLHNIINMRRHQKNFQLIVITHDEKFLGHMNAAAFTDHFFKVKRDDRQKSQIEWVDINRVTY

Key:
[1] = target: T1, Rad50-HA (Rad50, hemagglutinin-tagged at its native genomic locus) (S. cerevisiae) (UniProt P12753); assay: co-IP; Rad50-HA immunoprecipitated with anti-HA (12CA5) and Protein G-Dynabeads from total yeast protein extracts, 2 h at 4°C; 50 mM HEPES pH 7.5, 140 mM NaCl, 1 mM EDTA, 10% glycerol; blot with anti-Myc (9E10)
T1 sequence: B2 chain

[2] = target: Tel1-HA (HA-tagged Tel1) (S. cerevisiae) (UniProt P38110); assay: co-IP; Tel1-HA immunoprecipitated with anti-HA (12CA5) and Protein G-Dynabeads from total yeast protein extracts of wild-type and rif2-S6E cells, 2 h at 4°C; 50 mM HEPES pH 7.5, 140 mM NaCl, 1 mM EDTA, 10% glycerol; blot with anti-Myc (9E10)

Row | Binder | binding [1] | binding [2]
1 | B1 | binds | –
2 | B2 | – | binds
